Results deposited as PubChem BioAssay AID1259405 (NCATS, 2018).
This is a random part of about 50,000 reagents. In the full data, about 4,000 (8%) got an active call. 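Mouse siRNA library applied to hamster cells; one well for each siRNA.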 Reagents against one gene are numbered here.

Screen: 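Mouse-designed siRNAs used to find CHO productivity engineering targets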 (primary screen)
Cell system: Chinese hamster CHO-K1 ovary cells with stable secreted eGFP expression
Reagents: single siRNA against mouse genes, 0.8 pmol siRNA per well (2 µl of 400 nM stock)
Timing: 3 days
Detection: 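Percent of the per-plate non-targeting control median for intracellular GFP per well by laser scanning cytometry and for cell viability by ATP luminescence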
Scale: GFP, % of control: higher = more GFP per well, higher productivity; viability (ATP), % of control: higher = more viable cells (more ATP)
Rule for the call: 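a knock-down is called active if GFP reaches 120% or more of non-targeting control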

With Timd4 #1, how do the results read?
GFP, % of control: 111; viability (ATP), % of control: 87.7; Outcome: inactive

What is on record for Timd4 #2?
GFP, % of control: 64.7; viability (ATP), % of control: 71.1; Outcome: inactive

Which result is listed for Timd4 #3?
GFP, % of control: 26.1; viability (ATP), % of control: 46.9; Outcome: inactive

With Nudcd2 #1, what was measured?
GFP, % of control: 51.1; viability (ATP), % of control: 53; Outcome: inactive

What is on record for Nudcd2 #2?
GFP, % of control: 77.9; viability (ATP), % of control: 83.7; Outcome: inactive

What is on record for Nudcd2 #3?
GFP, % of control: 61; viability (ATP), % of control: 59.1; Outcome: inactive

With Gabra4 #1, what does the deposit list?
GFP, % of control: 67.4; viability (ATP), % of control: 82.9; Outcome: inactive

What is on record for Gabra4 #2?
GFP, % of control: 66; viability (ATP), % of control: 63.1; Outcome: inactive

With Gabra4 #3, what was measured?
GFP, % of control: 50; viability (ATP), % of control: 77.3; Outcome: inactive

What did the screen give for Bhlhe22 #1?
GFP, % of control: 67.3; viability (ATP), % of control: 73.8; Outcome: inactive

Which result is listed for Bhlhe22 #2?
GFP, % of control: 69.5; viability (ATP), % of control: 80.3; Outcome: inactive

Which result is listed for Bhlhe22 #3?
GFP, % of control: 98.9; viability (ATP), % of control: 116; Outcome: inactive

What did the screen give for Pik3r6 #1?
GFP, % of control: 41.1; viability (ATP), % of control: 47.7; Outcome: inactive

With Pik3r6 #2, what was measured?
GFP, % of control: 57.1; viability (ATP), % of control: 75.8; Outcome: inactive

For Pik3r6 #3, what was measured?
GFP, % of control: 66.1; viability (ATP), % of control: 93.6; Outcome: inactive

Which result is listed for Pramel4 #1?
GFP, % of control: 101; viability (ATP), % of control: 88.3; Outcome: inactive

With Pramel4 #2, what does the deposit list?
GFP, % of control: 97.9; viability (ATP), % of control: 77.5; Outcome: inactive

For Pramel4 #3, what was measured?
GFP, % of control: 89.1; viability (ATP), % of control: 93.9; Outcome: inactive

Targets above whose gene name starts with T or t:
Timd4 #1 | GFP, % of control: 111; viability (ATP), % of control: 87.7; Outcome: inactive
Timd4 #2 | GFP, % of control: 64.7; viability (ATP), % of control: 71.1; Outcome: inactive
Timd4 #3 | GFP, % of control: 26.1; viability (ATP), % of control: 46.9; Outcome: inactive

Continued.
How did the screen score Ubac1 #1?
GFP, % of control: 84.1; viability (ATP), % of control: 42.6; Outcome: inactive

What did the screen give for Ubac1 #2?
GFP, % of control: 87; viability (ATP), % of control: 92.6; Outcome: inactive

For Ubac1 #3, how do the results read?
GFP, % of control: 87.6; viability (ATP), % of control: 84.8; Outcome: inactive

Which result is listed for Or5d43 #1?
GFP, % of control: 93.8; viability (ATP), % of control: 67; Outcome: inactive

For Or5d43 #2, what does the deposit list?
GFP, % of control: 124; viability (ATP), % of control: 95.4; Outcome: active

For Or5d43 #3, what does the deposit list?
GFP, % of control: 48; viability (ATP), % of control: 56.4; Outcome: inactive

For Abhd16b #1, how do the results read?
GFP, % of control: 135; viability (ATP), % of control: 70.5; Outcome: active

For Abhd16b #2, what does the deposit list?
GFP, % of control: 26; viability (ATP), % of control: 45.4; Outcome: inactive

Which result is listed for Abhd16b #3?
GFP, % of control: 103; viability (ATP), % of control: 62.7; Outcome: inactive
